# Counter-ions that a name gives are not always drawn. This is one part of the list. Single values are uncertain here, since repeats match poorly.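 ReNCell VM, a human fetal ventral-midbrain neural progenitor line, was differentiated without mitogens. Blinded raters scored images stained for doublecortin (early neurons) or tyrosine hydroxylase (dopaminergic neurons) against untreated wells (0 = no change). Scores were averaged across repeats and both raters, and compounds averaging 2 or more were selected as hits for retesting.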
# Columns and labels:
# [1] = system: ReNCell VM; experiment: neuronal differentiation score (DCX+ cell fraction vs untreated, manual image score) (score (-3 to 3)); higher = more neuronal differentiation; settings: 2 uM, 2 weeks
# [2] = system: ReNCell VM; experiment: dopaminergic neuron differentiation score (TH+ cell fraction vs untreated, manual image score) (score (0 to 3)); higher = more TH+ dopaminergic neuron differentiation; settings: 2 uM, 4 weeks, BDNF 10 ng/ml + GDNF 10 ng/ml
smiles,measurement,setting,value
COC(=O)C[C@H]1C(C)(C)C(=O)[C@@H]2CC3C4=CC(=O)O[C@@H](c5ccoc5)[C@]4(C)CC[C@@H]3[C@@]1(C)C2=O (stereo not given in full),neuronal differentiation score,[1]; library: Spectrum,inactive: 0
same,dopaminergic neuron differentiation score,[2]; library: Spectrum,inactive: 0
Cc1c(N(C)C)c(=O)n(-c2ccccc2)n1C,neuronal differentiation score,[1]; library: Spectrum,inactive: 0
same,dopaminergic neuron differentiation score,[2]; library: Spectrum,inactive: 0
CCN1/C(=C/C(C)=O)Sc2ccc(OC)cc21,neuronal differentiation score,[1]; library: LOPAC,inactive: 0
same,dopaminergic neuron differentiation score,[2]; library: LOPAC,inactive: 0
C=C1c2cccc(O)c2C(=O)C2=C(O)[C@]3(O)C(=O)C(C(N)=O)=C(O)[C@@H](N(C)C)[C@@H]3[C@@H](O)[C@H]12,neuronal differentiation score,[1]; library: Spectrum,inactive: 0
same,dopaminergic neuron differentiation score,[2]; library: Spectrum,inactive: 0
NC(N)=Nc1nc(CSCC/C(N)=N/S(N)(=O)=O)cs1,neuronal differentiation score,[1]; library: Spectrum,inactive: -1
same,dopaminergic neuron differentiation score,[2]; library: Spectrum,inactive: 0
NCCCCCC(=O)O [Aminocaproic acid],neuronal differentiation score,[1]; library: Prestwick,inactive: 0
same,dopaminergic neuron differentiation score,[2]; library: Prestwick,inactive: 0
CCOC(=O)CCC(=O)O[C@H]1[C@H](O[C@@H]2[C@@H](C)[C@H](O[C@H]3C[C@@](C)(OC)[C@@H](O)[C@H](C)O3)[C@@H](C)C(=O)O[C@H](CC)[C@@](C)(O)[C@H](O)[C@@H](C)C(=O)[C@H](C)C[C@@]2(C)O)O[C@H](C)C[C@@H]1N(C)C,neuronal differentiation score,[1]; library: Spectrum,inactive: 0
same,dopaminergic neuron differentiation score,[2]; library: Spectrum,inactive: 0
CCn1cc(C(=O)O)c(=O)c2cc(F)c(N3CCNC(C)C3)c(F)c21 (stereo not given),neuronal differentiation score,[1]; library: Spectrum,inactive: 1
same,dopaminergic neuron differentiation score,[2]; library: Spectrum,inactive: 0
COc1ccc(CN2C(=O)C(=O)c3cc(OC(F)(F)F)ccc32)cc1,neuronal differentiation score,[1]; library: Tocriscreen,inactive: 0
same,dopaminergic neuron differentiation score,[2]; library: Tocriscreen,inactive: 0
CC(CCC(=O)O)[C@H]1CCC2C3C[C@H](O)[C@@H]4C[C@H](O)CC[C@]4(C)C3CC[C@@]21C (stereo partly drawn) [alpha-HYDROXYDEOXYCHOLIC ACID],neuronal differentiation score,[1]; library: Spectrum,inactive: 0
same,dopaminergic neuron differentiation score,[2]; library: Spectrum,inactive: 0
Cc1[nH]ccc2c(C)c3nc4ccccc4c3cc12 [Olivacine],neuronal differentiation score,[1]; library: Phytochemical,inactive: 0
same,dopaminergic neuron differentiation score,[2]; library: Phytochemical,inactive: 0
COc1cc2ncnc(Nc3ccc(Oc4ccccc4)cc3)c2cc1OC,neuronal differentiation score,[1]; library: Tocriscreen,inactive: 0
same,dopaminergic neuron differentiation score,[2]; library: Tocriscreen,inactive: 0
CNCCCCOc1ccccc1Cc1ccccc1 [Bifemelane hydrochloride],neuronal differentiation score,[1]; library: Tocriscreen,inactive: 0
same,dopaminergic neuron differentiation score,[2]; library: Tocriscreen,inactive: 0
CC(=Nc1ccccc1N)c1c(C)cc(=O)n(O)c1O,neuronal differentiation score,[1]; library: Tocriscreen,inactive: 0
same,dopaminergic neuron differentiation score,[2]; library: Tocriscreen,inactive: 0
Cc1ccc(C(=O)c2ccc(CC(=O)O)n2C)cc1 [Tolmetin sodium salt dihydrate],neuronal differentiation score,[1]; library: Prestwick,inactive: 0
same,dopaminergic neuron differentiation score,[2]; library: Prestwick,inactive: 0
CN1CCN(CC/C=C2/c3ccccc3Sc3ccc(S(=O)(=O)N(C)C)cc32)CC1,neuronal differentiation score,[1]; library: Spectrum,inactive: 0
same,dopaminergic neuron differentiation score,[2]; library: Spectrum,inactive: 1
CCN(CCO)CCCC(C)Nc1ccnc2cc(Cl)ccc12 (stereo not given),neuronal differentiation score,[1]; library: Spectrum,inactive: 0
same,dopaminergic neuron differentiation score,[2]; library: Spectrum,inactive: 0
O=C1C[C@@H](c2ccccc2)Oc2cc(O)cc(O)c21 [Pinocembrine],neuronal differentiation score,[1]; library: Phytochemical,inactive: 0
same,dopaminergic neuron differentiation score,[2]; library: Phytochemical,inactive: 0
CN(C)CCOC(=O)C(c1ccccc1)C1(O)CCCC1 (stereo not given) [Cyclopentolate hydrochloride],neuronal differentiation score,[1]; library: Prestwick,inactive: 0
same,dopaminergic neuron differentiation score,[2]; library: Prestwick,inactive: 0
O=[N+]([O-])c1ccc(-c2nc(-c3ccc(F)cc3)c(-c3ccncc3)[nH]2)cc1,neuronal differentiation score,[1]; library: LOPAC,inactive: 0
same,dopaminergic neuron differentiation score,[2]; library: LOPAC,inactive: 0
CC1(C)S[C@@H]2[C@H](NC(=O)[C@H](C(=O)O)c3ccsc3)C(=O)N2[C@H]1C(=O)O,neuronal differentiation score,[1]; library: Spectrum,inactive: 0
same,dopaminergic neuron differentiation score,[2]; library: Spectrum,inactive: 0
CCC(=O)OCC(=O)[C@@]1(OC(=O)CC)[C@H](C)CC2C3C([C@@H](O)C[C@@]21C)[C@@]1(C)C=CC(=O)C=C1C[C@H]3Cl (stereo not given in full),neuronal differentiation score,[1]; library: Spectrum,inactive: 1
same,dopaminergic neuron differentiation score,[2]; library: Spectrum,inactive: 0
Cc1cccc(C)c1NC(=O)C[N+](C)(C)C,neuronal differentiation score,[1]; library: Tocriscreen,inactive: 0
same,dopaminergic neuron differentiation score,[2]; library: Tocriscreen,inactive: 0
CC(C)=CCC1=C(O)C(=O)c2ccccc2C1=O [2-hydroxy-3-prenylnaphthoquinone],neuronal differentiation score,[1]; library: Natural,inactive: 0
same,dopaminergic neuron differentiation score,[2]; library: Natural,inactive: 0
CCCSc1ccc2[nH]c(NC(=O)OC)nc2c1,neuronal differentiation score,[1]; library: Spectrum,inactive: 0
same,dopaminergic neuron differentiation score,[2]; library: Spectrum,inactive: 0
OC(CCN1CCCC1)(c1ccccc1)C1CCCCC1 (stereo not given),neuronal differentiation score,[1]; library: Spectrum,inactive: 0
same,dopaminergic neuron differentiation score,[2]; library: Spectrum,inactive: 1
Nc1ccc(S(=O)(=O)Nc2nccs2)cc1,neuronal differentiation score,[1]; library: Spectrum,inactive: 0
same,dopaminergic neuron differentiation score,[2]; library: Spectrum,inactive: 0
C[C@@H]1C[C@H]2[C@@H]3C[C@H](F)C4=CC(=O)C=C[C@]4(C)[C@@]3(F)[C@@H](O)C[C@]2(C)[C@@]1(O)C(=O)CO [Flumethasone],neuronal differentiation score,[1]; library: Prestwick,inactive: 0
same,dopaminergic neuron differentiation score,[2]; library: Prestwick,inactive: 0
Cc1ncc([N+](=O)[O-])n1CC(C)O (stereo not given),neuronal differentiation score,[1]; library: Spectrum,inactive: 0
same,dopaminergic neuron differentiation score,[2]; library: Spectrum,inactive: 0
COC1=C(OC)C(=O)C(CCCCCCCCCCO)=C(C)C1=O [Idebenone],neuronal differentiation score,[1]; library: Prestwick,inactive: 0
same,dopaminergic neuron differentiation score,[2]; library: Prestwick,inactive: 0
Nc1ccn([C@@H]2CS[C@H](CO)O2)c(=O)n1 [Lamivudine],neuronal differentiation score,[1]; library: Prestwick,inactive: 0
same,dopaminergic neuron differentiation score,[2]; library: Prestwick,inactive: 0
COc1ccc([C@@H]2Sc3ccccc3N(CCN(C)C)C(=O)[C@@H]2OC(C)=O)cc1,neuronal differentiation score,[1]; library: Spectrum,inactive: 0
same,dopaminergic neuron differentiation score,[2]; library: Spectrum,inactive: 0
"CC(O)C(O)[C@H]1CNc2nc(N)[nH]c(=O)c2N1 (stereo partly drawn) [(6R)-5,6,7,8-Tetrahydro-L-biopterin hydrochloride]",neuronal differentiation score,[1]; library: LOPAC,inactive: 0
same,dopaminergic neuron differentiation score,[2]; library: LOPAC,inactive: 1
CCn1cc(C(=O)O)c(=O)c2cc(F)c(N3CCNCC3)cc21 [Norfloxacin],neuronal differentiation score,[1]; library: Prestwick,inactive: 0
same,dopaminergic neuron differentiation score,[2]; library: Prestwick,inactive: 0
Cc1ccsc1/C=C/C1=NCCCN1C [Morantel tartrate],neuronal differentiation score,[1]; library: Prestwick,inactive: 0
same,dopaminergic neuron differentiation score,[2]; library: Prestwick,inactive: 0

# Quoted at random: two records from the list
smiles,measurement,setting,value
Cc1ncc([N+](=O)[O-])n1CC(C)O (stereo not given),dopaminergic neuron differentiation score,[2]; library: Spectrum,inactive: 0
COc1ccc([C@@H]2Sc3ccccc3N(CCN(C)C)C(=O)[C@@H]2OC(C)=O)cc1,neuronal differentiation score,[1]; library: Spectrum,inactive: 0

# Part of the list above, as tab-separated lines.
smiles	measurement	setting	value
CCN(CCO)CCCC(C)Nc1ccnc2cc(Cl)ccc12 (stereo not given)	neuronal differentiation score	[1]; library: Spectrum	inactive: 0
same	dopaminergic neuron differentiation score	[2]; library: Spectrum	inactive: 0

# Reference: the supplement of paper PMC4635364
